Library screen at single concentrations

Chains of the proteins cited; added tags and fusions are not shown. Residues count along the entry.
UniProt Q4DA54, 1-478: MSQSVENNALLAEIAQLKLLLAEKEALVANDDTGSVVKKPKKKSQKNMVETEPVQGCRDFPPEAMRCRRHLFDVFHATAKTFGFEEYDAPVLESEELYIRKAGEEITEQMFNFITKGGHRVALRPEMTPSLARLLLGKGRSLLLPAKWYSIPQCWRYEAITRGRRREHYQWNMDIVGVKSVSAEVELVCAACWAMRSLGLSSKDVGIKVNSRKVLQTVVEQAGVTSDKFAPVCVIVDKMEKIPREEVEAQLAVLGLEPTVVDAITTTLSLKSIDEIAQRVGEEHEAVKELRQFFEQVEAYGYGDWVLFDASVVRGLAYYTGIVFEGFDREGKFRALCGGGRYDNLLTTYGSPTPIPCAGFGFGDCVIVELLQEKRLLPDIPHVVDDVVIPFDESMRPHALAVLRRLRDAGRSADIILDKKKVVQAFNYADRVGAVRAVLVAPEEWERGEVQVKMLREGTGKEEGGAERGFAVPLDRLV
UniProt P9WPC5, whole entry: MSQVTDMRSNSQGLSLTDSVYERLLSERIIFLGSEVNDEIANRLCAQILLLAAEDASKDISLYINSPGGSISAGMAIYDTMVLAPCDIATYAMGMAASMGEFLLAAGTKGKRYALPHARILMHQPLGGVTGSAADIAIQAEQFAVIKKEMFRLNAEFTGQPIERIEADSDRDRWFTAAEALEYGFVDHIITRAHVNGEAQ
UniProt P9WPC3, whole entry partner: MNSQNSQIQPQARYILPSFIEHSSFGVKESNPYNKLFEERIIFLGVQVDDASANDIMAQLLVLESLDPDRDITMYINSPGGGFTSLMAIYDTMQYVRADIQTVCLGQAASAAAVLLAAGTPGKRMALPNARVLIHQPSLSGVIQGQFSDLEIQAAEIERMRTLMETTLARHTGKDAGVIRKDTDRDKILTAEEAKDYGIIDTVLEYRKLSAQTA
UniProt Q8IDJ8, 1-583: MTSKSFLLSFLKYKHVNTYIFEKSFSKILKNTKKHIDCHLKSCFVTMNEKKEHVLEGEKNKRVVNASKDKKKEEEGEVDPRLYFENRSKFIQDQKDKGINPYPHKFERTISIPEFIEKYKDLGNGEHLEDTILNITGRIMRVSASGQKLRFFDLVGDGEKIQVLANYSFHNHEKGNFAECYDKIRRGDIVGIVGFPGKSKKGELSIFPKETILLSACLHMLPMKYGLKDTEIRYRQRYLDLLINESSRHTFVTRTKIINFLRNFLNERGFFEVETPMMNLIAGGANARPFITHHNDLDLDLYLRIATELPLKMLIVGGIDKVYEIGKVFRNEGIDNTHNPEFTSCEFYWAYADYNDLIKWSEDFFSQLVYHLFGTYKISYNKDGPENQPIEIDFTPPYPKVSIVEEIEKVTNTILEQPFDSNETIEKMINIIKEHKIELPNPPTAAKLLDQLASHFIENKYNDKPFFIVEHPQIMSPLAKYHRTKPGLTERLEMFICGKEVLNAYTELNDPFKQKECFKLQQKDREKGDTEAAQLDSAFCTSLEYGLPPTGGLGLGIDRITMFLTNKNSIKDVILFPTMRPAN

Source: ChEMBL document CHEMBL3988442, “University of Dundee, Small-Polar-MMV Screening Library” (2021).

Leishmania in macrophages: 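Cell assay of Leishmania donovani living inside macrophages; the read-out is not stated. Concentration: 30 µM. The record gives no direction; compounds that gave an IC50 in retests scored well above the rest, so higher reads as stronger inhibition. Size under these conditions: about 69,000 compounds, about 1,000 of them at 50% or above in at least one test.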
TcHisRS: 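Histidine-tRNA ligase, Trypanosoma cruzi CL Brener (UniProt Q4DA54). Enzyme assay of histidyl-tRNA synthetase; the read-out is not stated. Compounds at 30 µM. The record gives no direction; compounds that gave an IC50 in retests scored well above the rest, so higher reads as stronger inhibition. Of about 69,000 compounds tested this way, about 31 (0.045%) reached 50% or more in at least one test.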
ClpP1P2: 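ClpP1P2, Mycobacterium tuberculosis (UniProt P9WPC5 and UniProt P9WPC3). Protease assay of ClpP1P2, read by the AMC dye that it sets free. Tested at 50 µM. Higher reads as stronger inhibition, judged from the few compounds that gave an IC50. Most other retested compounds had strongly negative values. About 69,000 compounds were tested under these conditions; 0.015% (about 10) showed 50% or more at least once.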
Toxoplasma: 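Assay of Toxoplasma gondii numbers, read through their beta-galactosidase reporter with a colour substrate. Concentration: 10 µM. The record gives no direction; the compounds picked for IC50 retests had high values, so higher reads as fewer parasites. Of about 67,000 compounds tested this way, about 260 (0.38%) reached 50% or more in at least one test.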
PfKRS1: 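Lysine-tRNA ligase, Plasmodium falciparum 3D7 (UniProt Q8IDJ8). Enzyme assay of the cytosolic lysyl-tRNA synthetase in 384-well plates, read by luminescence. Tested at 30 µM. Direction is inferred from only a few compounds that gave an IC50; most scored high, so higher reads as stronger inhibition. About 69,000 compounds were tested under these conditions; 0.071% (about 49) showed 50% or more at least once.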

Each number is a percent effect as filed.
The record does not define 0% and 100%; most values in the screen are far below 50% and negative numbers occur (in some assays of this library far below -100).
The compounds are a random part of those screened.
Two or more numbers in one place are separate tests of the same structure; such repeats can differ widely.
A dash means the value is not listed here; it may have been measured.

| # | Compound | Leishmania in macrophages | TcHisRS | ClpP1P2 | Toxoplasma | PfKRS1 |
|---|---|---|---|---|---|---|
| 1 | `CCOC(=O)C1CCCCN1Cc1c[nH]nc1-c1cc2ccccc2o1` (stereo unspecified) | 10.44% | 5.051% | -11.35% | 12.89% | 6.449% |
| 2 | `CN(C)c1ncnc2c1CCN(C(=O)c1cccnc1)CC2.O=C(O)C(F)(F)F` | 25.72% | - | - | 11.76% | - |
| 3 | `Cc1nnc(N2CCC(CCn3ccnc3C)CC2)o1` | 0.9098% | -11.59% | -13.23% | -19.04% | 8.118% |
| 4 | `CCc1ccc(C2COCCN2C(=O)Nc2cccc(C(C)=O)c2)o1` (stereo unspecified) | -10.26% | 2.597% | -11.37% | -4.11% | 0.1101% |
| 5 | `c1ccc(CCCN2CCOC(Cn3cccn3)C2)cc1` (stereo unspecified) | -6.235% | 7.289% | -57.05% | 12.85% | 2.52% |
| 6 | `Cn1cnc2c1CCN(CC(O)c1ccc3c(c1)OCCO3)C2` (stereo unspecified) | -2.395% | -0.5618% | -7.16% | -3.861% | -2.112% |
| 7 | `Cn1cc(C2COC3(CCN(C(=O)c4ccccn4)CC3)C2)cn1` (stereo unspecified) | - | 6.863% | -5.537% | - | -0.5598% |
| 8 | `COc1ccc(C(C)NCc2scnc2C)cc1Cn1cccn1` (stereo unspecified) | 6.892% | 2.128% | -7.948% | -6.242% | 2.035% |
| 9 | `O=C([C@H]1CCCO1)N1CCCC2(COCCN(c3ccccc3)C2)C1` (stereo partly specified) | - | 9.497% | -14.21% | - | 4.023% |
| 10 | `CN(Cc1ccc([S+](C)[O-])cc1)c1ccc(Br)cn1` (stereo unspecified) | 20.24% | 1.961% | -28.87% | -24.5% | -3.863% |
| 11 | `CCn1c(C2CCCN(Cc3cccc4cnccc34)C2)nn(C)c1=O` (stereo unspecified) | 11.27% | 4.651% | 1.923% | -3.304% | 6.374% |
| 12 | `Cc1nc(C)n(C2CCCN(C(=O)c3cncnc3C)C2)n1` (stereo unspecified) | -2.867% | 6.471% | -26.3% | -0.3662% | 1.881% |
| 13 | `C[C@@H](CO)Nc1cc(-c2cn[nH]c2)ncn1` | 12.48% & 9.631% | 3.39% | 8.096% | 17.48% | 3.289% |
| 14 | `Cc1nc(N2CCCC2)nc2c1CCN(C(=O)CN(C)C)CC2` | - | 8.602% | 5.618% | - | 4.736% |
| 15 | `Cc1ccc(CN2CCOC3(COCCN(C(C)C)C3)C2)s1.O=C(O)C(F)(F)F.O=C(O)C(F)(F)F` (stereo unspecified) | 9.608% & -9.881% | - | - | -29.01% | - |
| 16 | `CCOCCCC(=O)N1CCN(c2cccc(OC)c2)C(C)C1` (stereo unspecified) | -1.764% | 2.105% | 4.055% | -9.008% | 0.9692% |
| 17 | `O=C(NC1CC1)c1ccc2ccc(N3CCN(CC4CC4)CC3)n2c1` | 44.02% | 45.11% | 2.003% | -0.9504% | 5.549% |
| 18 | `CN1[C@H](CN2CCCC2)C[C@@H]2CN(C(=O)Cc3ccsc3)CC[C@@H]21` | - | 2.404% | -0.43% | - | 7.549% |
| 19 | `CC[C@H]1COCCN1C(=O)CCCn1nnc(-c2ccc(F)cc2)n1` | 5.094% | 7.895% | -7.232% | -0.4566% | 0.9194% |
| 20 | `CN(C)C(=O)N1CCC(c2nc3ccc(N4CCCC4)cn3n2)CC1.O=C(O)C(F)(F)F` | 22.72% | - | - | 12.87% | - |
| 21 | `N#Cc1cccnc1N1CCCC(CO)(CCOc2ccccc2)C1` (stereo unspecified) | -8.465% | 2.116% | -12.95% | 6.455% | 1.542% |
| 22 | `CC(C)CNC(=O)c1cn(-c2ccccn2)c(=O)c2ccccc12` | 17.23% | 5.208% | -112.1% | -5.628% | 7.223% |
| 23 | `Cc1nc(CN(C)C2CCN(Cc3cccc(F)c3)C2)no1` (stereo unspecified) | 13.1% | -2.624% | -46.85% | 10.67% | -0.7857% |
| 24 | `CN1C(=O)CC(N(C)Cc2nc3ccccc3c(=O)[nH]2)C1=O` (stereo unspecified) | -22.91% | -3.158% | 13.07% | -0.8327% | -2.795% |
| 25 | `Cn1cnc(S(=O)(=O)N2CCCn3cnc(CN4CCCC4)c3C2)c1` | 3.358% | 3.922% | -10.26% | 1.296% | 2.856% |
| 26 | `COCc1ccc(C(=O)N2CCC(c3nccn3CC3CC3)CC2)o1` | 23.14% | 3.518% | -13.03% | -18.49% | 0.6741% |
| 27 | `CC(C)c1nccn1C1CCCN(C(=O)c2ccc3nncn3c2)C1` (stereo unspecified) | -8.155% | 3.448% | -6.98% | -6.183% | -0.6804% |
| 28 | `Cc1[nH]ncc1C(=O)NCC1CCC2(CC1)OCCO2` | 6.81% | 2.463% | -16.27% | 9.569% | 9.274% |
| 29 | `CC(C)c1nc(CC(=O)N2CCCC(n3cncn3)C2)cs1` (stereo unspecified) | 7.438% | 3.053% | 21.93% | -10.75% | 5.04% |
| 30 | `Cc1ccc(N2CCCN(C(=O)c3c(C)oc(C)c3C)CC2)nn1` | 5.026% | 1.887% | 3.405% | 2.871% | 9.224% |
| 31 | `COC(=O)COn1c(SC)nc2ccccc2c1=O` | 6.07% & 10.61% | 2.439% | -5.623% | 19.43% | -1.764% |
| 32 | `Cc1nccn1C1CCCN(C(=O)c2ccc3cc[nH]c3c2)C1` (stereo unspecified) | 20.69% | 7.514% | -34.28% | -12.59% | 0.628% |
| 33 | `CCOc1ncccc1NC(=O)NCC(C)O` (stereo unspecified) | 9.358% | 6.286% | 1.643% | -10.41% | -0.09208% |
| 34 | `N#Cc1cccc(N2CCOC3(CNCCOC3)C2)n1` (stereo unspecified) | 1.333% | -13.83% | 12% | 0.9201% | 3.833% |
| 35 | `Cn1c(=O)c2cc(C(=O)NCc3ccccn3)ccc2n(C)c1=O` | 10.01% | 2.312% | 1.853% | -4.007% | 2.74% |
| 36 | `COc1ccccc1OCCNC(=O)NCC(C)C` | 3.887% | 10.84% | 4.578% | -16.18% | 2.375% |
| 37 | `O=C(O)C(F)(F)F.O=C(c1cnoc1)N1CCC[C@]2(C[C@@H](Oc3ccccn3)CO2)C1` | 14.96% | - | - | 15.31% | - |
| 38 | `Cc1ccc(-c2nnc(CN3CCN(c4ccccn4)CC3)o2)cc1` | 39.01% | 4.545% | -8.298% | 8.685% | 2.316% |
| 39 | `CCCNCc1cn(C)nc1-c1cccnc1.Cl` | -1.579% | - | - | -1.329% | - |
| 40 | `CN(C)C(=O)N1CCCn2nc(CNC(=O)CCc3ccsc3)cc2C1` | 6.668% | 5.941% | -4.723% | 2.712% | 4.319% |
| 41 | `CCC(O)Cn1nc(-c2ccc(C(=O)O)cc2)cc1-c1ccc(F)cc1` (stereo unspecified) | 61.24% | 1.13% | -8.874% | 1.788% | -0.6774% |
| 42 | `CC(=O)N1CCN(C(=O)c2sc(-c3ccccc3F)nc2C)CC1` | -4.852% | 1.212% | 7.991% | 0.1897% | -2.131% |
| 43 | `Cc1csc([C@H]2C[C@@H]3CCN(Cc4cnn(C)c4)C[C@H]3O2)n1` | - | 4.95% | -3.436% | - | 4.693% |